These results are taken from paper PMC5914539.

Sequences of proteins named here, by UniProt entry; tags and fusion partners are left off. A change or cut given only in a name is not applied to a line headed by its entry. Residues count along the entry.
UniProt P16422, 24-314: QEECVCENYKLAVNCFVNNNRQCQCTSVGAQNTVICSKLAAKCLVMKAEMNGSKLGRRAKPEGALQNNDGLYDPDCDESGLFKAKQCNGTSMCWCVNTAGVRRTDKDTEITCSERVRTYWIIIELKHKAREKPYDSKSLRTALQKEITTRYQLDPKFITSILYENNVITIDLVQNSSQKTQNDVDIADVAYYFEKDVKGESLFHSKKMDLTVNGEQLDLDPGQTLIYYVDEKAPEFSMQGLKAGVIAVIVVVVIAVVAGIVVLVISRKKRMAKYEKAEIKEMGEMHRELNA
UniProt P15941: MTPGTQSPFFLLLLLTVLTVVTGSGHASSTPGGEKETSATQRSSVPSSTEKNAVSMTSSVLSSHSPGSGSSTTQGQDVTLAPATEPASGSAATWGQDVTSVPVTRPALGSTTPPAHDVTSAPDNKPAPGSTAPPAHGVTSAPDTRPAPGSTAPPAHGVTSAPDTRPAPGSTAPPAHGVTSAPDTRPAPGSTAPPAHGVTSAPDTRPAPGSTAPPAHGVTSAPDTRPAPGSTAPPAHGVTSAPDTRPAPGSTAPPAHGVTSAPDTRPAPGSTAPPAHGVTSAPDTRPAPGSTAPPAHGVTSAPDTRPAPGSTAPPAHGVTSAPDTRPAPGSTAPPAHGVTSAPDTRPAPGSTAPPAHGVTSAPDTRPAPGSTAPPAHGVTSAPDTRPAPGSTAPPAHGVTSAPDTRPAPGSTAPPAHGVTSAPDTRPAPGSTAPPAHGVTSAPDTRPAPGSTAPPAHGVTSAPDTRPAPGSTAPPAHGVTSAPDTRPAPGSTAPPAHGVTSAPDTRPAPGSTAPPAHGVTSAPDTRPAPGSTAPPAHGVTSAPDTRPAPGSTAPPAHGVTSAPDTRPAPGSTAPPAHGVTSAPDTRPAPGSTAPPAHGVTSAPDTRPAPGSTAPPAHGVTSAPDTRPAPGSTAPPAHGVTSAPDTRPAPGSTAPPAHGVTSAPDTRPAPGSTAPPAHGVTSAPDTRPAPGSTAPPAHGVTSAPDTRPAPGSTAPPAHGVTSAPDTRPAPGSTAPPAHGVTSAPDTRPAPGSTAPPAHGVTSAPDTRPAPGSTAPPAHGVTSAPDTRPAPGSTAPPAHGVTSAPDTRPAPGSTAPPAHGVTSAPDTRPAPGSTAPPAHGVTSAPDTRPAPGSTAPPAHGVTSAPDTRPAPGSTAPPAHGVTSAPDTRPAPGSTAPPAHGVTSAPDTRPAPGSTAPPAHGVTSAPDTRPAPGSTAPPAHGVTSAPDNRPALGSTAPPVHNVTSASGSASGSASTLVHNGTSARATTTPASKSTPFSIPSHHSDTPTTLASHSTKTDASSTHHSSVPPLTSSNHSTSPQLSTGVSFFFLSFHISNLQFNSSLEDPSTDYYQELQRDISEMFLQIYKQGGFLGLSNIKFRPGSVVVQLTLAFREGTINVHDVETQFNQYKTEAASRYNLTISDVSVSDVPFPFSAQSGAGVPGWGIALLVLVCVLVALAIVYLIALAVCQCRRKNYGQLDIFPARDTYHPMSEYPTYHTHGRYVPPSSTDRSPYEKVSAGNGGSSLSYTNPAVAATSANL
UniProt P19338, 2-710: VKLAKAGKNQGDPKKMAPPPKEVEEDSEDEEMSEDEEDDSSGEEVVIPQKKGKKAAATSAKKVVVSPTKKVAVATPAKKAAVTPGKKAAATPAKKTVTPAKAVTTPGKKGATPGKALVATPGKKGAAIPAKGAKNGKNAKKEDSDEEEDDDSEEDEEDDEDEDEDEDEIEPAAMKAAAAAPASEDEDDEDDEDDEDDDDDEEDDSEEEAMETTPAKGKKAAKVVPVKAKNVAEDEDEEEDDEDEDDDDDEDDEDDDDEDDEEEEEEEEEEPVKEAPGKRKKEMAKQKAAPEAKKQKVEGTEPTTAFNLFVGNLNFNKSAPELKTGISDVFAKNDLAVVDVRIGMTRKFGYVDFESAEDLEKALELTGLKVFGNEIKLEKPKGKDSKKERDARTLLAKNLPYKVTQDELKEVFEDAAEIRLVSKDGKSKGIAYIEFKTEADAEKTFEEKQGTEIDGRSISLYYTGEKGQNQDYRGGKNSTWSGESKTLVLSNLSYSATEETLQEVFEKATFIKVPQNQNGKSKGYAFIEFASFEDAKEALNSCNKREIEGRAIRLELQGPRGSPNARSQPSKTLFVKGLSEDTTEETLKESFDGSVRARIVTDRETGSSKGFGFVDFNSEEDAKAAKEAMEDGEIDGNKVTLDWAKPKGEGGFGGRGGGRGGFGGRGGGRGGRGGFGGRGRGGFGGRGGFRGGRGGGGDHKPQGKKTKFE

For at least one entry, the source does not settle the construct or the ends of the probe. Where cells or extracts were used, other partners may take part. For some assays here: Negatives hold for the conditions tested. At least one verdict rests on a figure or table, not on a statement of the authors.

Series [1] addresses epithelial cell adhesion molecule (EpCAM) (human) (UniProt P16422). In words: SERS imaging of cells. Particulars: A549 and HepG2 cells, GIAN-lib; 5' thiol linked to DSPE-PEG; SERS imaging: GIAN-aptamer in dPBS, 37 C, 2.5 h; protein on the cell surface; label: GIAN SERS tag; single-stranded DNA.
Series [2] deals with mucin 1 (MUC1) (human) (UniProt P15941). Briefly: SERS imaging of cells. Particulars: A549 cells, GIAN-lib; 5' thiol linked to DSPE-PEG; SERS imaging: GIAN-aptamer in dPBS, 37 C, 2.5 h; protein on the cell surface; label: GIAN SERS tag; single-stranded DNA.
Series [3] has as its target nucleolin (human) (UniProt P19338). Briefly: SERS imaging of cells. Particulars: A549 and HepG2 cells, GIAN-lib; 5' thiol linked to DSPE-PEG; SERS imaging: GIAN-aptamer in dPBS, 37 C, 2.5 h; protein on the cell surface; label: GIAN SERS tag; single-stranded DNA.
Series [4] has the same target. In words: flow cytometry. Particulars: 250 nM aptamer, also SERS imaging, Flow cytometry: 250 nM FITC-aptamer, 37 C, 30 min, dPBS washes, protein on the cell surface. (In general: Flow cytometry measures light scatter and fluorescence of single cells or particles in a stream.)
The target of series [5] is epithelial cell adhesion molecule (EpCAM) (human) (UniProt P16422). Briefly: flow cytometry. Particulars: 250 nM aptamer, also SERS imaging, Flow cytometry: 250 nM FITC-aptamer, 37 C, 30 min, dPBS washes, protein on the cell surface.
The target of series [6] is mucin 1 (MUC1) (human) (UniProt P15941). In words: flow cytometry. Particulars: A549 cells, 250 nM aptamer, also SERS imaging, MUC1-low HepG2 not stained; Flow cytometry: 250 nM FITC-aptamer, 37 C, 30 min, dPBS washes; protein on the cell surface; single-stranded DNA.
Where [7] appears, read: A549 cells, single-stranded DNA.

For the sequence “AAAAAAAAAATTTTTTAATTATTTATATTAAT [HS-Lib (DSPE-PEG-lib)]”, the binding result (in series [1]; with mucin 1 (MUC1) (human) [2]; in the series with nucleolin (human) [3]) was “no binding” each time.

In the case of “AAAAAAAAGGTGGTGGTGGTTGTGGTGGTGGTGG [AS1411-FITC]”, the binding result in the series with nucleolin (human) [4] (setting [7]) is recorded as “binds”; in the series with nucleolin (human) [4] (HepG2 cells, single-stranded …), “binds”.

Consider “AAAACACTACAGAGGTTGCGTCTGTCCCACGTTGTCATGGGGGGTTGGCCTG [SYL3C-FITC]”, for which the binding result is “binds” in series [5] (setting [7]) and “binds” in series [5] (HepG2 cells, single-stranded …).

Take “GGGAGACAAGAATAAACGCTCAAGCAGTTGATCCTTTGGATACCCTGGTTCGACAGGAGGCTCACAACAGGC [S1.6-FITC]”: in the series with mucin 1 (MUC1) (human) [6], the binding result is recorded as “binds”.
